These are yes or no findings as the source states them, for the method shown. A result given as binding can be weak or reduced; the word gives no strength.

The text below walks through data of publication PMC9700808, “Poly ADP-ribosylation of SET8 leads to aberrant H4K20 methylation in mammalian nuclear genome” (Communications Biology, 2021).

The assay concerns the target GST-PARP1 DNA binding domain (GST-PARP1 DB). Kind of assay: pull-down; GST-PARP1 fusion fragments on glutathione-Sepharose beads, full-length recombinant SET8 in solution; 1X PBS with 0.1% Triton X-100, 100 µg/ml BSA, 4 °C, 1 h; washes with 1% Triton X-100; western blot with anti-SET8; both purified. A general note: Immunoblotting shows a protein as a band on a membrane.

B1: full-length recombinant SET8 protein (enzyme, UniProt Q9NQR1 1-393)
chain: MGEGGAAAALVAAAAAAAAAAAAVVAGQRRRRLGRRARCHGPGRAAGGKMSKPCAVEAAAAAVAATAPGPEMVERRGPGRPRTDGENVFTGQSKIYSYMSPNKCSGMRFPLQEENSVTHHEVKCQGKPLAGIYRKREEKRNAGNAVRSAMKSEEQKIKDARKGPLVPFPNQKSEAAEPPKTPPSSCDSTNAAIAKQALKKPIKGKQAPRKKAQGKTQQNRKLTDFYPVRRSSRKSKAELQSEERKRIDELIESGKEEGMKIDLIDGKGRGVIATKQFSRGDFVVEYHGDLIEITDAKKREALYAQDPSTGCYMYYFQYLSKTYCVDATRETNRLGRLINHSKCGNCQTKLHDIDGVPHLILIASRDIAAGEELLYDYGDRSKASIEAHPWLKH
On to B1, for which the binding entry is “binds”.
